# Measured values as given in publication PMC11005723, “Development of Complementary Photo‐arginine/lysine to Promote Discovery of Arg/Lys hPTMs Interactomes” (Advanced Science, 2024).
# “Also recorded” adds a separate entry of the source.
# Assay: Amino acid labeling preference of photo‐arginine
# Settings: six amino acids tested (Figure S1)
substance,measurement,value
photo‐arginine,amino acid labeling preference,preferred to label Asp (negative charge) and Lys; also recorded: also preferred to label Trp and Tyr; also recorded: Ile and Gln exhibited relatively lower labeling efficiency
